Data published in PMC3842248.

Columns and labels:
Test in all cases: split reporter; protein complementation assay with Gaussia princeps luciferase fragments: Gluc1-LEDGF construct or PWWP domain and Gluc2-PIR co-expressed in 293T cells, luminescence of the lysate 24 h after transfection; normalized luminescence ratio (NLR), threshold 3.5
[1] = target: HDGF PWWP domain (aa 41-105), PCA fusion (human)
[2] = target: BS69 PWWP domain (aa 233-325), PCA fusion (human)
[3] = target: PDP1 PWWP domain (aa 41-163), PCA fusion (saccharomyces pombe (so in the source))

B1: Gluc2-TOX4 PIR (domain or fragment, UniProt O94842 203-621)
chain: VEAGKKQKAPKKRKKKDPNEPQKPVSAYALFFRDTQAAIKGQNPNATFGEVSKIVASMWDSLGEEQKQVYKRKTEAAKKEYLKALAAYKDNQECQATVETVELDPAPPSQTPSPPPMATVDPASPAPASIEPPALSPSIVVNSTLSSYVANQASSGAGGQPNITKLIITKQMLPSSITMSQGGMVTVIPATVVTSRGLQLGQTSTATIQPSQQAQIVTRSVLQAAAAAAAAASMQLPPPRLQPPPLQQMPQPPTQQQVTILQQPPPLQAMQQPPPQKVRINLQQQPPPLQIKSVPLPTLKMQTTLVPPTVESSPERPMNNSPEAHTVEAPSPETICEMITDVVPEVESPSQMDVELVSGSPVALSPQPRCVRSGCENPPIVSKDWDNEYCSNECVVKHCRDVFLAWVASRNSNTVVFVK
[1]
  binding: binds
[2]
  binding: no binding
[3]
  binding: no binding

These are yes or no findings as the source states them, for the method shown. In cells and extracts the contact can be indirect. For part of these data: Binding can be weak; no strength is given. Tags and fused reporters may be left off the sequences shown.
